According to article PMC10163288:
The other results are listed elsewhere or left out.

B1: il10ra_site1_normal_mot_HHH_b1_00992_000000182_0001_23_40_H_._HHH_b1_07180_0001_0000300021_0000001_0_af2pred_0001 (protein)
chain: SSSSDDEERLELALKFIEWLIKQGDEEAAKYVIKAAREIAKKLGNEEILERLEELLERLNSSSSS
B2: il10ra_site1_sap_24_mot_HHH_b1_06174_af2_000000107_0001_40_57_H_._HHH_b1_02318_0001_0000200024_0000001_0_0001_af2pred_0001 (protein)
chain: SSSSSSDAEETVRIALRVAKLLTDPEDVRRALELAEKLARQANDPELEELVEEVEEELSSSSSSS
B3: il10ra_site1_normal_mot_HHH_b1_05254_000000006_0001_1_19_H_._HHH_b2_03913_0001_0000200009_0000001_0 (protein)
chain: SSSSDEAYELVRKAIEEALKLYRNGNPEEARELIEQVIEELRELGNVAAVWAAEHVLRVLRSSSS
B4: il10ra_site1_sap_17_mot_HHH_b1_02004_000000220_0001_1_19_H_._HHH_b2_05056_af2_0001_0000400040_0000002_0_0001 (protein)
chain: SSSSDETQEVFELFERAIELHSEGDHEEAERLLEEAERLAEELGNRLMRFQIEFAQRLLDSSSSS
B5: il10ra_site1_sap_12_mot_HHH_b2_00943_af2_000000149_0001_1_17_H_._HHH_b2_07075_0001_0000600045_0000001_0_0001 (protein)
chain: SSSSEEVIEKASRVAQEAIRLAIQRSDKETFEALWRLFEEIIREGDPELLEELERLLEELRSSSS
B6: il10ra_site1_normal_mot_HHH_b1_02997_000000220_0001_39_52_H_._HHH_b2_02307_0001_0000100006_0000001_1_af2pred_0001 (protein)
chain: SSSSSEVLRLIREAIELLNDGNPEEAREVAEEARRLAEEANNYVFRIAIELIIRIIEREGSSSSS
B7: il10ra_site1_sap_18_mot_HHH_b1_01821_000000158_0001_23_39_H_._HHH_b2_02007_0001_0000400032_0000001_0_0001 (protein)
chain: SSSSSDEELVIELIMRLLELFANQDREELEKLTEEAEEVAEELNDPYLRQIVRFAKAFLNSSSSS
B8: il10ra_site1_sap_14_mot_HHH_b1_06348_000000162_0001_1_15_H_._HHH_b1_08757_0001_0000400019_0000001_0_0001_af2pred_0001 (protein)
chain: SEEERIEIAVEHVAELANAPSVEVEVSNGEVTVTVEGDDEAARYVRLFLEALARILNIPLEIHVE
B9: il10ra_site1_normal_mot_HHH_b1_08356_000000013_0001_43_57_H_._HHH_b2_03796_0001_0000400048_0000002_0_af2pred_dldesign_0_af2pred (protein)
chain: SSSSSSSKIDELRAAIEAALAAGDTGRATQLLIELTKLAAEAEDQDTLAEARALNGRLASSSSSS
B10: il10ra_site1_normal_mot_HHH_b2_00479_000000091_0001_1_12_H_._HHH_b2_03517_0001_0000100001_0000002_0 (protein)
chain: SSSSSDADEVYELLREILELLANNDEEEAKELIEEVRKLVEELGNFALEFAVRVLERRVNSSSSS
B11: il10ra_site1_normal_mot_HHH_b2_00230_000000227_0001_1_19_H_._HHH_b2_06456_0001_0000100007_0000001_0 (protein)
chain: SSSDEAYELVRRAIEEVIELFRKGNPEEAERLLEEVEELLKELNNDAALWSIEHLLRLLRNSSSS
B12: il10ra_site1_normal_mot_HHH_b2_08186_000000021_0001_43_56_H_._HHH_b1_04312_af2_0001_0000100006_0000002_0 (protein)
chain: SSSSDREERIKELQEEIEELIERNDRERAIELLLEALQLAYEAGNAELLRELWELLRLVESSSSS
B13: il10ra_site1_normal_mot_HHH_b2_00033_000000036_0001_41_54_H_._HHH_b1_02211_0001_0000400014_0000001_0 (protein)
chain: SSSSSSSSVRRLAAEAVRFAMELGDDETFQRLWELYKRYIEEGDPRYEEEIEELLEELSSSSSSS
B14: il10ra_site1_normal_mot_HHH_b1_05357_000000034_0001_23_39_H_._HHH_b2_05126_af2_0001_0000200002_0000002_0_af2pred_0001 (protein)
chain: SSSSSDEEYREEVEELLEKAEQIEDPHEVAYLLIRAFAIAFRLGDPELEEEVKRVAHELLSSSSS
B15: il10ra_site1_sap_12_mot_6805e7cfcec1a9f49da1e1cd80eb4878_0001_af2_000000116_0001_1_14_H_._a4d94f43bc0d423f3d0edd362bd39fea_0001_0001_0000200008_0000001_0_0001_a … (protein)
chain: SSSSSDDEVLKLAAKALALAQRLGDEERAERLLRLIVRLYEEGDPEVEEELRKLAEEVLESSSSS
B16: il10ra_site1_normal_mot_HHH_b1_03094_000000294_0001_1_20_H_._HHH_b1_06894_0001_0000500019_0000001_1 (protein)
chain: SSSSSDLKERVLELSRQALRLALRGNPEEAREVLEEAEELAEELGNPRLLRVLRQLLQALSSSSS
B17: il10ra_site1_sap_15_mot_HHH_b1_05357_000000034_0001_23_39_H_._HHH_b2_00617_0001_0000100006_0000001_0_0001 (protein)
chain: SSSSDEELQEVLELLRRAIRLALRGNPEEAEKVLEEARRLAEEINDERIRKMIESLEKALRSSSS
B18: il10ra_site1_sap_28_mot_HHH_b1_01555_000000194_0001_1_18_H_._772cb577d49f115e122c84b1f84da933_0001_0001_0000200002_0000001_0_0001 (protein)
chain: SSSSSEVERYVKLALRFARRLFEDGDPEAARFLVEVAEEMAERNNNEELHEEARRLLEELESSSS
B19: il10ra_site1_sap_18_mot_HHH_b2_02927_000000097_0001_42_56_H_._HHH_b2_03336_0001_0000200019_0000002_0_0001 (protein)
chain: SSSSDEEYERAKELIQEIVELLREGNPEEAEKVLEELRKLAEERNSPVLEMVVRFLEERINSSSS
B20: il10ra_site1_sap_13_mot_HHH_b2_07144_000000289_0001_1_18_H_._HHH_b1_02371_af2_0001_0000100002_0000001_0_0001 (protein)
chain: SSSSSDEFNELILKIEELLYNGNPEEARKLVEEMEELVEELGDPELERYLEILKHFVEAHSSSSS
B21: il10ra_site1_normal_mot_HHH_b2_02537_000000065_0001_1_20_H_._HHH_b2_00157_af2_0001_0000200010_0000001_0 (protein)
chain: SSSSSEESEELFEEAEEKLRRLLEEGNVDEAFELLRRVIERLVELGDPEAARRLSRLFLEGSSSS
B22: il10ra_site1_normal_mot_HHH_b1_05254_000000006_0001_1_19_H_._HHH_b2_01890_af2_0001_0000300021_0000001_0 (protein)
chain: SSSSSDEEEVEERVKELLEELKHVDPDEFYELLREAIELASELNDPELLREIIKVLQEWFSSSSS
B23: il10ra_site1_sap_24_mot_e1dd4851c59bc1cdde016f988f6856bd_0001_1_000000200_0001_16_31_H_._HHH_b2_04498_0002_0000100007_0000001_0_0001 (protein)
chain: PEVKKEAEEAEELLHEAEELAEDPKMREAIRFHLDILKQAKEQDNEEALRAAIHAARALWELVLS
B24: il10ra_site1_sap_11_mot_HHH_b1_00103_000000293_0001_1_15_H_._HHH_b2_01196_af2_0001_0000500018_0000001_0_0001_af2pred_dldesign_0_af2pred (protein)
chain: SSSSSPLEEFERLKKELEELLKAGKLDEAREVLRELSRLALELNDPEKIAEVLELAKELESSSSS

biological target: il10ra, Q13651; assay: yeast display titration

Binder	apparent Kd
B1	inactive: no binding seen
B2	inactive: no binding seen
B3	inactive: no binding seen
B4	inactive: no binding seen
B5	inactive: no binding seen
B6	inactive: no binding seen
B7	inactive: no binding seen
B8	inactive: no binding seen
B9	inactive: no binding seen
B10	inactive: no binding seen
B11	inactive: no binding seen
B12	inactive: no binding seen
B13	inactive: no binding seen
B14	inactive: no binding seen
B15	inactive: no binding seen
B16	inactive: no binding seen
B17	inactive: no binding seen
B18	inactive: no binding seen
B19	inactive: > 7.52 µM
B20	inactive: no binding seen
B21	inactive: no binding seen
B22	inactive: no binding seen
B23	inactive: no binding seen
B24	inactive: no binding seen

Some of the entries so far, in CSV form:
Binder,apparent Kd
B5,inactive: no binding seen
B8,inactive: no binding seen
B15,inactive: no binding seen
B19,inactive: > 7.52 µM
B21,inactive: no binding seen
